Among the data in publication PMC12757429 are binding values, retold here.

Sequences of proteins named here, by UniProt entry; tags and fusion partners are left off.
UniProt O00487: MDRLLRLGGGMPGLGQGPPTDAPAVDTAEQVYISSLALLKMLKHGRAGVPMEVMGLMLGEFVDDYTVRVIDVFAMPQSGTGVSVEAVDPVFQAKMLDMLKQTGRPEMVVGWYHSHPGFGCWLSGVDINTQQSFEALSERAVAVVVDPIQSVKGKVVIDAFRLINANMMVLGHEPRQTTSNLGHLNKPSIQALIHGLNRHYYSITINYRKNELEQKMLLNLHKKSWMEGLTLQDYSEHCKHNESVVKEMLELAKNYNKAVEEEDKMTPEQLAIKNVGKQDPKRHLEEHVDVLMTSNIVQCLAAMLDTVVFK

Results are given in words; binding and its absence hold for the method and conditions named. Binding seen in cells or lysates may run through a third protein. Some binding calls cover weakened binding; strength is not graded here.

The target of this experiment is PSMD14 in LUAD cells (co-immunoprecipitation) (human (in human LUAD cell lines)) (UniProt O00487). As to the kind of experiment: co-IP; LUAD cells lysed in NP-40 buffer with protease inhibitors and 20 uM MG-132; cleared lysates; Western blot. A general note: Immunoblotting shows a protein as a band on a membrane.

B1: Hyaluronan-mediated motility receptor (HMMR) (protein, UniProt O75330 1-724)
chain: MSFPKAPLKRFNDPSGCAPSPGAYDVKTLEVLKGPVSFQKSQRFKQQKESKQNLNVDKDTTLPASARKVKSSESKESQKNDKDLKILEKEIRVLLQERGAQDRRIQDLETELEKMEARLNAALREKTSLSANNATLEKQLIELTRTNELLKSKFSENGNQKNLRILSLELMKLRNKRETKMRGMMAKQEGMEMKLQVTQRSLEESQGKIAQLEGKLVSIEKEKIDEKSETEKLLEYIEEISCASDQVEKYKLDIAQLEENLKEKNDEILSLKQSLEENIVILSKQVEDLNVKCQLLEKEKEDHVNRNREHNENLNAEMQNLKQKFILEQQEREKLQQKELQIDSLLQQEKELSSSLHQKLCSFQEEMVKEKNLFEEELKQTLDELDKLQQKEEQAERLVKQLEEEAKSRAEELKLLEEKLKGKEAELEKSSAAHTQATLLLQEKYDSMVQSLEDVTAQFESYKALTASEIEDLKLENSSLQEKAAKAGKNAEDVQHQILATESSNQEYVRMLLDLQTKSALKETEIKEITVSFLQKITDLQNQLKQQEEDFRKQLEDEEGRKAEKENTTAELTEEINKWRLLYEELYNKTKPFQLQLDAFEVEKQALLNEHGAAQEQLNKIRDSYAKLLGHQNLKQKIKHVVKLKDENSQLKSEVSKLRCQLAKKKQSETKLQEELNKVLGIKHFDPSKAFHHESKENFALKTPLKEGNTNCYRAPMECQESWK
In the case of B1, the binding result is “binds”.
